PubChem BioAssay AID1224830 – NIAID, 2016

Aim: 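Host factors that control LPS-induced TNF expression in human macrophages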 (primary screen)
Cell system: human THP-1 monocytic leukaemia cells, TNF dual-luciferase reporter clone, PMA-differentiated to macrophage-like cells
Reagents: siRNA pool against human genes, 50 nM
Duration: LPS for 4 h, given about 3 days after siRNA transfection
Treatment: bacterial LPS (TLR4 ligand), 10 ng/ml
Detection: 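TNF firefly reporter luminescence divided by renilla, normalised to the plate median, then turned into a robust z-score for each replicate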
Reading the numbers: TNF reporter robust z-score: higher = stronger TNF reporter response to LPS
Hit rule: 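a well is active when its z-score exceeds 2.8 or falls below -1.5; control wells carry no call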
The whole screen tested about 18,000 reagents; this is a part drawn at random. About 2,900 of all reagents (16%) were called active. 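Calls are made per well; low scores hint the gene aids the LPS response, high scores that it dampens it.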 Repeated entries: four replicate wells of each siRNA pool.

Which result is listed for LYSMD1?
TNF reporter robust z-score: 0.88; activity call: inactive

How did the screen score LYSMD1?
TNF reporter robust z-score: 2.98; activity call: active

What did the screen give for LYSMD1?
TNF reporter robust z-score: 1; activity call: inactive

How did the screen score LYSMD1?
TNF reporter robust z-score: 1.95; activity call: inactive

For OR10J1, what does the deposit list?
TNF reporter robust z-score: 1.22; activity call: inactive

Which result is listed for OR10J1?
TNF reporter robust z-score: 1.68; activity call: inactive

For OR10J1, what was measured?
TNF reporter robust z-score: 0.57; activity call: inactive

What is on record for OR10J1?
TNF reporter robust z-score: 0.24; activity call: inactive

Which result is listed for SNAI3?
TNF reporter robust z-score: -0.27; activity call: inactive

How did the screen score SNAI3?
TNF reporter robust z-score: -0.06; activity call: inactive

For SNAI3, what does the deposit list?
TNF reporter robust z-score: -1.03; activity call: inactive

With SNAI3, how do the results read?
TNF reporter robust z-score: -1.02; activity call: inactive

For SUOX, what was measured?
TNF reporter robust z-score: -0.28; activity call: inactive

For SUOX, what was measured?
TNF reporter robust z-score: -0.24; activity call: inactive

How did the screen score SUOX?
TNF reporter robust z-score: -0.45; activity call: inactive

For SUOX, how do the results read?
TNF reporter robust z-score: -0.26; activity call: inactive

What is on record for ACTR6?
TNF reporter robust z-score: 0.39; activity call: inactive

What is on record for ACTR6?
TNF reporter robust z-score: 1.12; activity call: inactive

What did the screen give for ACTR6?
TNF reporter robust z-score: -0.3; activity call: inactive

How did the screen score ACTR6?
TNF reporter robust z-score: -0.34; activity call: inactive

How did the screen score AKAP19?
TNF reporter robust z-score: 0.92; activity call: inactive

With AKAP19, how do the results read?
TNF reporter robust z-score: 0.31; activity call: inactive

Which result is listed for AKAP19?
TNF reporter robust z-score: 0.59; activity call: inactive

Which result is listed for AKAP19?
TNF reporter robust z-score: 0.49; activity call: inactive

8 of these entries, set out differently.
| gene knocked down | TNF reporter robust z-score | activity call |
| --- | --- | --- |
| SUOX | -0.24 | inactive |
| SUOX | -0.45 | inactive |
| SUOX | -0.26 | inactive |
| ACTR6 | 0.39 | inactive |
| ACTR6 | 1.12 | inactive |
| ACTR6 | -0.3 | inactive |
| ACTR6 | -0.34 | inactive |
| AKAP19 | 0.92 | inactive |

More entries follow:
What did the screen give for DAP?
TNF reporter robust z-score: -0.73; activity call: inactive

For DAP, how do the results read?
TNF reporter robust z-score: -0.39; activity call: inactive

Which result is listed for DAP?
TNF reporter robust z-score: -0.51; activity call: inactive

With DAP, what does the deposit list?
TNF reporter robust z-score: -0.95; activity call: inactive

What did the screen give for CCDC136?
TNF reporter robust z-score: 1.23; activity call: inactive

Which result is listed for CCDC136?
TNF reporter robust z-score: 3.1; activity call: active

With CCDC136, how do the results read?
TNF reporter robust z-score: 2.64; activity call: inactive

For CCDC136, how do the results read?
TNF reporter robust z-score: 2.68; activity call: inactive

What is on record for MYH11?
TNF reporter robust z-score: -0.48; activity call: inactive

Which result is listed for MYH11?
TNF reporter robust z-score: 0.12; activity call: inactive

With MYH11, what does the deposit list?
TNF reporter robust z-score: -0.53; activity call: inactive

For MYH11, how do the results read?
TNF reporter robust z-score: -0.04; activity call: inactive

Which result is listed for CDC5L?
TNF reporter robust z-score: -1.36; activity call: inactive

What is on record for CDC5L?
TNF reporter robust z-score: -1.2; activity call: inactive

What is on record for CDC5L?
TNF reporter robust z-score: -1.07; activity call: inactive

For CDC5L, how do the results read?
TNF reporter robust z-score: -0.41; activity call: inactive

For PRUNE2, what does the deposit list?
TNF reporter robust z-score: 1.9; activity call: inactive

Which result is listed for PRUNE2?
TNF reporter robust z-score: 2.29; activity call: inactive

Which result is listed for PRUNE2?
TNF reporter robust z-score: 0.16; activity call: inactive

What did the screen give for PRUNE2?
TNF reporter robust z-score: 0.67; activity call: inactive

Which result is listed for TNIP3?
TNF reporter robust z-score: -0.1; activity call: inactive

What did the screen give for TNIP3?
TNF reporter robust z-score: 0.54; activity call: inactive

For TNIP3, how do the results read?
TNF reporter robust z-score: 0.47; activity call: inactive

With TNIP3, what does the deposit list?
TNF reporter robust z-score: -0.02; activity call: inactive
